Measurements reported in PubChem BioAssay AID652259 (Drosophila RNAi Screening Center, 2013)
In all, the deposit lists about 22,000 reagents; shown is an unselected part of those with a known target gene and a result. Of all reagents, 233 (1.1%) got an active call. 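Light values are raw, unnormalised plate reads; the ratio scores behind the reporter calls were not deposited.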 Names joined by + are all predicted targets of the reagent. The record does not give: the amount of reagent, the time to read-out, the dose of the treatment.

- Assay: 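Identify new Wingless signalling regulators in fly cells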 (primary screen)
- Cell system: Drosophila clone 8 imaginal disc epithelial cells
- Reagent: long dsRNA against Drosophila genes
- Conditions: pathway stimulated by co-transfected Wingless expression plasmid
- Detection: 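Firefly luciferase from a tcf-site Wingless reporter, measured alongside co-transfected Renilla luciferase that tracks transfection; pathway stimulated by a Wingless plasmid; the firefly-to-Renilla ratio is not deposited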
- Direction: firefly reporter light: higher = more Wg reporter light, before normalisation; Renilla control light: higher = more transfected or surviving cells
- Rule for the call: 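a knock-down is a candidate when at least two out of four statistical tests show it departing from its plate mean; one test alone signals a weak candidate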
- Meaning of the calls: active = candidate regulator (raises or lowers reporter); inactive = not a candidate

predicted target	amplicon	reporter change call, replicate 1	firefly reporter light, replicate 1	firefly reporter light, replicate 2	Renilla control light, replicate 1	Renilla control light, replicate 2	call
CG13362	DRSC17897		21740		14202		inactive
CG3356	DRSC04358		11045		3543		inactive
CG31313	DRSC13044		5330		884		inactive
PCB	DRSC05939		8544		1451		inactive
Tango5	DRSC18023		2677	6791	1050	2309	inactive
CG9471	DRSC16499		12324		3275		inactive
par-1	DRSC05792	Wg reporter activity raised	18185		6032		active
par-1	DRSC06098		7108		2371		inactive
par-1	DRSC06616		14576		4599		inactive
par-1	DRSC07660		6844		2360		inactive
par-1	DRSC07661		5338		1670		inactive
CG30016	DRSC05242		14445		9608		inactive
S-Lap4	DRSC10957		6589		3488		inactive
Drsl1	DRSC22490		5.47e5	5.39e5	1.90e5	52947	inactive
Bdbt	DRSC15218		12118		4096		inactive
CG7702	DRSC16293		2528	6311	673	1756	inactive
CG13204	DRSC06328		5222		1993		inactive
CG9240	DRSC20177		24370		10522		inactive
sens	DRSC09263		2633		293		inactive
CG31601	DRSC03678		13401		6384		inactive
fwe	DRSC09398		4725		1511		inactive
fwe	DRSC10594		6282		2132		inactive
fwe	DRSC21400		4.27e5	3.75e5	1.62e5	1.06e5	inactive
CG15170	DRSC02471		3036	6106	518	2187	inactive
CG8187	DRSC07099		12768		3522		inactive
CG34309	DRSC14838		14824		2544		inactive
Nup35	DRSC19999		1996	7937	753	2732	inactive
bdwf	DRSC15532		3268	7541	1195	2609	inactive
CG5561	DRSC00688		4102	9338	1949	3804	inactive
ida	DRSC08163		7147		2185		inactive
CG43795 + SkpF	DRSC04120		3206	9249	905	2566	inactive
Or98b	DRSC16775		9788		3772		inactive
Or98b	DRSC21751		2.27e5	3.21e5	1.11e5	1.19e5	inactive
CG14232	DRSC19588		3440	6100	1408	2266	inactive
CG5823	DRSC15881		2868	5312	1060	1879	inactive
vsg	DRSC10219		7000		2818		inactive
bai	DRSC14388		15529		14643		inactive
CG4020	DRSC18337		16323		9011		inactive
X11L	DRSC19958		4150	11027	1547	4016	inactive
X11L	DRSC19959		20807		9803		inactive
YL-1	DRSC02765		2823	11178	874	3084	inactive
MBD-R2	DRSC14180		15668		1624		inactive
CG13994	DRSC02326		3127	6101	784	2343	inactive
pins	DRSC17043		5299		2736		inactive
RpL30	DRSC02087		3237	8228	417	2312	inactive
CG8323	DRSC07149		5447		2868		inactive
mIF3	DRSC06290		4784		2395		inactive
CG1703	DRSC19764		1976	4582	762	1888	inactive
CG7720	DRSC16306		3090	7558	2214	1522	inactive
CG7720	DRSC16307		3271		869		inactive
CG31908	DRSC21864		6.04e5	6.12e5	1.64e5	1.72e5	inactive
spirit	DRSC18202		3467	4178	1192	1609	inactive
CG13445	DRSC09992		9011		3307		inactive
CG14926	DRSC02409		2520	7717	1104	2513	inactive
Scm	DRSC16853		14080		3680		inactive
Rab4 + CG42239	DRSC05667		18272		12176		inactive
CG3328	DRSC04357		10032		3424		inactive
CG14546	DRSC14890		16785		15216		inactive
ver	DRSC10125		8528		3196		inactive
CG6094	DRSC02927		14628	7.54e5	4423	3.56e5	inactive
CG6094	DRSC22705		5.50e5	6.10e5	2.18e5	1.50e5	inactive
Sytbeta	DRSC10009		7880		3892		inactive
Sytbeta	DRSC10351		4240		2216		inactive
CG3713	DRSC18648		22811		20551		inactive
Acbp1	DRSC03093		2656	8470	1211	4298	inactive
CG14778	DRSC17953		27544		21267		inactive
CG5928	DRSC18391		23392		12731		inactive
CG1999	DRSC18199	Wg reporter activity lowered	1117	5264	971	2468	inactive
mRpS23	DRSC01348		25542		12392		inactive
COX3 (retired record)	DRSC21279		16212		6570		inactive
CG5281	DRSC15761		13520		2488		inactive
CG31525	DRSC12004		2299		1259		inactive
rt	DRSC11391		6186		2170		inactive
GstD11	DRSC15251		8915		1920		inactive
Sans	DRSC06357		13512		3884		inactive
PNUTS	DRSC00638		6404		3752		inactive
PNUTS	DRSC22136		7.56e5	7.42e5	3.29e5	3.59e5	inactive
CG11597	DRSC09847		3056		1584		inactive
lncRNA:CR32027	DRSC09571		4235		1750		inactive
csul	DRSC07599		6393		2228		inactive
CG11155	DRSC17184		4274		1680		inactive
CG11155	DRSC17205		2227	5226	873	1604	inactive
CR31824	DRSC01517		16231		7593		inactive
CG3301	DRSC15471		2323	7184	979	2120	inactive
CG1492	DRSC19605		16136		4363		inactive
CG9269	DRSC16465		18482		4461		inactive
Ude	DRSC15324		1988	5383	1089	1760	inactive
PXo	DRSC09734		9493		3748		inactive
Tm1	DRSC13082		4432		1276		inactive
Tm1	DRSC13083		4619		2216		inactive
Tm1	DRSC16886		5740		2371		inactive
mfrn	DRSC15687		11549		2800		inactive
mats	DRSC13562		2963		1585		inactive
mats	DRSC14702		3168	5296	1421	2253	inactive

Single entries from the list:
Entry of Tm1 [DRSC13082] in “firefly reporter light, replicate 1”: 4432
Entry for CG9269 [DRSC16465] in “Renilla control light, replicate 1”: 4461
Value for mIF3 [DRSC06290] under “firefly reporter light, replicate 1”: 4784
par-1 [DRSC06098], call: inactive
CG13362 [DRSC17897], Renilla control light, replicate 1 = 14202
Value of Drsl1 [DRSC22490] in “Renilla control light, replicate 1”: 1.90e5
